Source: PMC6172762
These are yes or no findings as the source states them, for the method shown. Some results given as binding are weak or reduced against the parent protein; the word gives no strength.

Tests used:
[1] = molecular target: T1, Sec17 (yeast α-SNAP) (S. cerevisiae) (UniProt P32602); assay: two-hybrid; quantitative β-galactosidase (LacZ reporter) activity of the PJ69-4A transformants, ONPG hydrolysis; NSF as AD fusion, α-SNAP as BD fusion
T1 sequence: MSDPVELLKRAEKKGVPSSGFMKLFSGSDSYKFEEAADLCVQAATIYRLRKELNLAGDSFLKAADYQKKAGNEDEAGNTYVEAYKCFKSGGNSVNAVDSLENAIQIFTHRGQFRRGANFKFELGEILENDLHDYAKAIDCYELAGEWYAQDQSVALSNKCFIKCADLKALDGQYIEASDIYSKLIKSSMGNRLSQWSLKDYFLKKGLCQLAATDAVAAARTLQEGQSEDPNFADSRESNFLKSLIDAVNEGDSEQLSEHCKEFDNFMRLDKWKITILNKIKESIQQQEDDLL

[2] = molecular target: T1, Sec17 (yeast α-SNAP) (S. cerevisiae); assay: two-hybrid; growth spot assay in yeast PJ69-4A; NSF as Gal4 AD fusion (prey, pGAD424), α-SNAP as Gal4 BD fusion (bait, pGBT9); YCM plates LTH with 2.5 mM 3-AT and LTA, 30 °C, 2 to 3 days

- binding [1]: binds
- binding [2]: binds
B1: Sec18 (yeast NSF) (protein, UniProt P18759 1-758)
chain: MFKIPGFGKAAANHTPPDMTNMDTRTRHLKVSNCPNNSYALANVAAVSPNDFPNNIYIIIDNLFVFTTRHSNDIPPGTIGFNGNQRTWGGWSLNQDVQAKAFDLFKYSGKQSYLGSIDIDISFRARGKAVSTVFDQDELAKQFVRCYESQIFSPTQYLIMEFQGHFFDLKIRNVQAIDLGDIEPTSAVATGIETKGILTKQTQINFFKGRDGLVNLKSSNSLRPRSNAVIRPDFKFEDLGVGGLDKEFTKIFRRAFASRIFPPSVIEKLGISHVKGLLLYGPPGTGKTLIARKIGTMLNAKEPKIVNGPEILSKYVGSSEENIRNLFKDAEAEYRAKGEESSLHIIIFDELDSVFKQRGSRGDGTGVGDNVVNQLLAKMDGVDQLNNILVIGMTNRKDLIDSALLRPGRFEVQVEIHLPDEKGRLQIFDIQTKKMRENNMMSDDVNLAELAALTKNFSGAEIEGLVKSASSFAINKTVNIGKGATKLNTKDIAKLKVTREDFLNALNDVTPAFGISEEDLKTCVEGGMMLYSERVNSILKNGARYVRQVRESDKSRLVSLLIHGPAGSGKTALAAEIALKSGFPFIRLISPNELSGMSESAKIAYIDNTFRDAYKSPLNILVIDSLETLVDWVPIGPRFSNNILQMLKVALKRKPPQDRRLLIMTTTSAYSVLQQMDILSCFDNEIAVPNMTNLDELNNVMIESNFLDDAGRVKVINELSRSCPNFNVGIKKTLTNIETARHDEDPVNELVELMTQSA
